We go through 42 sequences from PMC7819943, “Rice protein-binding microarrays: a tool to detect cis-acting elements near promoter regions in rice”.

The list shows a part of the results.

The target in the test is T1, OsSMF1 (Oryza sativa, UniProt Q6ZLB0 1-436).
T1 sequence: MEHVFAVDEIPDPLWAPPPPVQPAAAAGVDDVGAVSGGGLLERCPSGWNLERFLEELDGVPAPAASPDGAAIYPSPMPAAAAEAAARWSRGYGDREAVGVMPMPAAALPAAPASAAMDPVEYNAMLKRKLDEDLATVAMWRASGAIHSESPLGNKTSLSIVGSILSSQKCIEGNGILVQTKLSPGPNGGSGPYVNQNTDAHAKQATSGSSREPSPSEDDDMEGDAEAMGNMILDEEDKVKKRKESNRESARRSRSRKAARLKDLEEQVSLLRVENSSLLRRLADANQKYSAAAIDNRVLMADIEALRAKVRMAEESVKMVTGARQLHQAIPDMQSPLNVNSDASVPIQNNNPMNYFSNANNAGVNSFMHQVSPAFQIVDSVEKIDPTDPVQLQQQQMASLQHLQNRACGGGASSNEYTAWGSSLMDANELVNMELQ
Description: protein-binding microarray (RPBM); PBS, 2% BSA, 51.3 ng/ul salmon testes DNA, 50 uM zinc acetate, 200 nM TF, 25 C, 1 h; high values mean tight binding. As to conditions: protein: recombinant; tags: N-terminal polyhistidine and DsRed monomer fusion (pET32a); chain copies: 2; label: CyDye5-dUTP incorporated in the synthesized complementary strand; 3' TTTTT single-stranded linker to array surface; dsDNA, one strand shown. Put shortly: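 Per-feature fluorescence intensity (arbitrary units), read on an Axon 4000B scanner, is the binding signal. Transcription factors carrying an N-terminal polyhistidine tag and DsRed fusion were expressed in E. coli BL21-CodonPlus and purified on Ni–NTA. A custom Agilent array, made double-stranded by primer extension with Cy5-dUTP and blocked with 2% BSA, was incubated with 200 nM protein in PBS, 2% BSA, salmon testes DNA and 50 µM zinc acetate at 25 °C for 1 h and then washed.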
Regarding “GCCGCCGTCATCTCCAGCTTCTGCGGGAGCAACACCGCCACGGAGTCACCTAGTGCAG”, the binding signal was 3470 fluorescence intensity (a.u.).

With “CTCCTGCCTGTCTCACACACACCTGACGCGTGTGCGTGGGCGGAGTCACCTAGTGCAG”, the binding signal was 5120 fluorescence intensity (a.u.).

For “CCTCCACAATACAATTCAATTCCCTCCTAGGTTTGTTATGCGGAGTCACCTAGTGCAG”, the binding signal is 3440 fluorescence intensity (a.u.).

For “ACGTTCATATCAACGACCGTCATCAATTGATGATCTGACTCGGAGTCACCTAGTGCAG”, the binding signal is 7580 fluorescence intensity (a.u.).

Regarding “GAGGAAACTGGGCAACCAACCAGGCATCGGGACGTGTCAACGGAGTCACCTAGTGCAG”, the binding signal is 6480 fluorescence intensity (a.u.).

Turning to “ATATAGTAACGATAACCAGTGGCTCCACGTCAGCATGTTTCGGAGTCACCTAGTGCAG”, the binding signal was 35000 fluorescence intensity (a.u.).

In the case of “CTAACTTTTCCTTGTTTTCCACGTCTTTGGGAAGGGAGATCGGAGTCACCTAGTGCAG”, the binding signal was 4590 fluorescence intensity (a.u.).

As for “AACACAGCCATAATAATGGAGACGTTTAAATTACGTCAGGCGGAGTCACCTAGTGCAG”, the binding signal is 4170 fluorescence intensity (a.u.).

Consider “TTTCAGACTGTCAACGTCTCACCGATAATTCGCGTGTCTGCGGAGTCACCTAGTGCAG”, for which the binding signal is 3210 fluorescence intensity (a.u.).

Regarding “ATTCTCGTACACGAAAAGTCTTTTCAGCTGTCGCTTCATACGGAGTCACCTAGTGCAG”, the binding signal was 3140 fluorescence intensity (a.u.).

On to “AGTCAGTTTTGCATTTCGGCACGTGCGTGTCAGGGGCAGACGGAGTCACCTAGTGCAG”, for which the binding signal was 5840 fluorescence intensity (a.u.).

Consider “CGCTCATGCTCGCCGCCACGTCGTCACTTCCGCCCCTTCCCGGAGTCACCTAGTGCAG”, for which the binding signal is 18600 fluorescence intensity (a.u.).

Regarding “GATAATCATGTAAGAATGATGTTGCTGGATTTATTATTAACGGAGTCACCTAGTGCAG”, the binding signal is 3280 fluorescence intensity (a.u.).

With “ATCTTCCCAAGTGGCCACCAGATAAGCCTCTCCACGTATTCGGAGTCACCTAGTGCAG”, the binding signal is 4930 fluorescence intensity (a.u.).

“CTAGACTGTGCCCTCTATTTCCACTCCGGCTGACGGCATTCGGAGTCACCTAGTGCAG”: the binding signal was 3550 fluorescence intensity (a.u.).

“ATCCGCCGCTGACGCCGACGGTGGAGGTCGGATCCGCCGCCGGAGTCACCTAGTGCAG”: the binding signal was 3500 fluorescence intensity (a.u.).

For “TGATCCGTGCCATCGTAACTATGCCTATTCAGATAAATGCCGGAGTCACCTAGTGCAG”, the binding signal was 3940 fluorescence intensity (a.u.).

As for “AAAAGTTACTATCTCCGTTCTCAAATAGATGTCGTCATTGCGGAGTCACCTAGTGCAG”, the binding signal is 5160 fluorescence intensity (a.u.).

Consider “CGTTGTGTTGGTATGTGGTCTTCCTCCTCGTGTCTGTCGCCGGAGTCACCTAGTGCAG”, for which the binding signal was 19800 fluorescence intensity (a.u.).

“GTCCACCAGCTGCTGCTCACGTGGATTGGGCTGAAGACGACGGAGTCACCTAGTGCAG”: the binding signal is 5030 fluorescence intensity (a.u.).

For “CGTGTCACCATGGACGTCTCGCTGTTAATAGGTATATAGTCGGAGTCACCTAGTGCAG”, the binding signal was 27400 fluorescence intensity (a.u.).

Regarding “TTTGGACACCTATATGGGCGGGCGGGTGTATGTACAGTACCGGAGTCACCTAGTGCAG”, the binding signal is 3980 fluorescence intensity (a.u.).

Turning to “GACTCTACTACGTGTAAACTCTACAGAGGCACGCCTCATGCGGAGTCACCTAGTGCAG”, the binding signal is 3290 fluorescence intensity (a.u.).

In the case of “TTGGCGGTGATCGAGGTTAGACATCTCACCGTCAATCTTGCGGAGTCACCTAGTGCAG”, the binding signal was 3180 fluorescence intensity (a.u.).

On to “CCACGCACCCCACGGACGTGTCGGCCGCCAGAAGCTCCGGCGGAGTCACCTAGTGCAG”, for which the binding signal is 3310 fluorescence intensity (a.u.).

In the case of “TTTCGTTAATGGAGACTGACATCATGGATTTTAGTTTCCTCGGAGTCACCTAGTGCAG”, the binding signal is 3750 fluorescence intensity (a.u.).

As to “GGTCACAACCAATCCAACTCATTCACTTGGTTCCCAGCTCCGGAGTCACCTAGTGCAG”, the binding signal was 3800 fluorescence intensity (a.u.).

For the sequence “CCTCCGCGCCCACGCCACGCCGTGGACGACGACGACGCCGCGGAGTCACCTAGTGCAG”, the binding signal is 3450 fluorescence intensity (a.u.).

Turning to “GCTTGAGCAGTAGAGATTCAGCGATACTGATGCACCAGTCCGGAGTCACCTAGTGCAG”, the binding signal was 18500 fluorescence intensity (a.u.).

Regarding “TCGTGGGAATGGCTGAGGATTAGGGCGCCACGTCATCGTTCGGAGTCACCTAGTGCAG”, the binding signal is 45600 fluorescence intensity (a.u.).

For the sequence “ACACTAACGCTAGTGCGTCATGACGCTAAGATGTACCTTTCGGAGTCACCTAGTGCAG”, the binding signal was 5680 fluorescence intensity (a.u.).

With “TCTAGCTTTTGCAAAAGGTGTGACACCACCCACGGTACAGCGGAGTCACCTAGTGCAG”, the binding signal was 3780 fluorescence intensity (a.u.).

Regarding “TCCCGAAATAACAAAAGCAGCTCCACGTTTATTTGTCACACGGAGTCACCTAGTGCAG”, the binding signal is 4040 fluorescence intensity (a.u.).

As for “TGAGCCATTAGCGCATGATTAATTGAGTATTAAATATTTTCGGAGTCACCTAGTGCAG”, the binding signal is 33900 fluorescence intensity (a.u.).

In the case of “AAACTGCAACAACCGCCACGCCAGAGTCCACCGCACGCCACGGAGTCACCTAGTGCAG”, the binding signal is 6650 fluorescence intensity (a.u.).

Take “AATTCCGCCGCCGCCAAGCGGCCTCGCCCTCGCGTCGTCACGGAGTCACCTAGTGCAG”: the binding signal was 3870 fluorescence intensity (a.u.).

For “GCTACCAGAGGTTTAGTTTTCCACGTGTTAATTAGATTGGCGGAGTCACCTAGTGCAG”, the binding signal is 8410 fluorescence intensity (a.u.).

With “CCTGTTCTCCTGTCATCCCCTATTTAATTTGTTGAACTAGCGGAGTCACCTAGTGCAG”, the binding signal is 4440 fluorescence intensity (a.u.).

Turning to “CCCTTGTCATCGTCATCCGATTGTGCCTTCCCTGATTTTCCGGAGTCACCTAGTGCAG”, the binding signal is 28000 fluorescence intensity (a.u.).

For “GCGAGATGATGCAATCCACGAACAGTTTGATGACATATCTCGGAGTCACCTAGTGCAG”, the binding signal is 4090 fluorescence intensity (a.u.).

In the case of “AACAGTGCACATCCGTATGTGTCATGGTCAACTAGGCAACCGGAGTCACCTAGTGCAG”, the binding signal was 6010 fluorescence intensity (a.u.).

For “GGTCAGAGTTGCATCCCGGCCACTGGCCAGCCACGACGACCGGAGTCACCTAGTGCAG”, the binding signal was 4420 fluorescence intensity (a.u.).
